Experimental data published in patent publication US5478808A, “2-amino-6,7-dihydroxy-4-thiaheptanoic acid derivatives, production and use thereof” (Takeda Chemical Industries, Ltd., priority 1992, dated 1995).
Not every detail of the peptide structures is certain; ends, links or a residue may be inferred. Where a SMILES comes first, the peptide text is derived from it. [ ]: non-standard residue; d: D form. The star is where a group is joined. Propyl(2R-PamO,3-PamO) = CCCCCCCCCCCCCCCC(=O)OC[C@H](C*)OC(=O)CCCCCCCCCCCCCCC

Tests used:
[1] = test system: Nonadherent bone marrow cells of BALB/c mice; experiment: Development of AchE positive cells (fluorescence method); type: cell-based, mouse; conditions: 0.1 ng/ml; AchE activity of group without compound = 1; 5 days
[2] = test system: peripheral blood leukocytes of CDF1/Crj mice; experiment: Enhancing the number of leukocytes in cyclophosphamide-treated mice; type: in vivo, mouse; conditions: cyclophosphamide 150 mg/kg p.o., then compound 0.031 mg/kg/day s.c. for 5 days; mice without cyclophosphamide = 100%
[3] = test system: bone marrow cells of BALB/c mice; experiment: Enhancing proliferation of bone marrow cells of mice (MTT reduction method); type: cell-based, mouse; conditions: concentration giving 1.3 or more times the proliferation of the group without test compound; 3 days incubation
Protocol: To an RPMI 1640 culture medium [Bio-Wittaker Inc. (hereinafter abbreviated as BW), USA] containing 2×10^6 /ml of bone marrow cells of BALB/c mice, 2 mM of L-glutamine, 20 ug/ml of gentamicin (Flow Laboratories, Inc., Scotland), 10% fetal calf serum (BW, USA) was added a test compound in an adequate concentration, which was incubated at 37° C. for 3 days in 5% carbon dioxide in air followed by determination of proliferation of the bone marrow cells by the MTT reduction method [Tada et al., Journal of Immunological Methods, Vol. 93, p.157, 1986].

[4] = test system: spleen cells of BALB/c mouse; type: in vivo; conditions: cyclophosphamide 200 mg/kg i.p., then test compound 0.1 mg/kg/day i.p. for 4 days; saline/2% gum arabic mouse = 100%
[5] = test system: bone marrow cells of BALB/c mice; experiment: Megakaryocyte colony formation (plasma clot method); type: cell-based, mouse; conditions: group without compound = 1, 7 days

CCCCCCCCCCCCCCCC(=O)OC[C@H](CSC[C@H](N)C(=O)NCC(=O)NCC(=O)NCC(=O)N[C@@H](CCC(=O)O)C(=O)O)OC(=O)CCCCCCCCCCCCCCC [Compound 7, (2R,6R)-2-amino-6,7-bis(PamO)-4-THT-Gly-Gly-Gly-Glu-OH] (H-C(Propyl(2R-PamO,3-PamO))GGGE-OH)
Degree of AchE positive cell [1]: 1.51
Number of leukocytes [2]: 129%

CCCCCCCCCCCCCCCC(=O)OC[C@H](CSC[C@H](N)C(=O)NCC(=O)NCC(=O)NCC(=O)N[C@H](CCC(=O)O)C(=O)O)OC(=O)CCCCCCCCCCCCCCC [Compound 8, (2R,6R)-2-amino-6,7-bis(PamO)-4-THT-Gly-Gly-Gly-D-Glu-OH] (H-C(Propyl(2R-PamO,3-PamO))GGG[dE]-OH)
Minimal Effective Concentration (MEC) [3]: < 0.156 ng/mL
Number of spleen cells (%) [4]: 78.6%

CCCCCCCCCCCCCCCC(=O)OC[C@H](CSC[C@H](N)C(=O)NCC(=O)NCC(=O)N[C@@H](CCC(=O)O)C(=O)O)OC(=O)CCCCCCCCCCCCCCC [Compound 12, (2R,6R)-2-amino-6,7-bis(PamO)-4-THT-Gly-Gly-Glu-OH] (H-C(Propyl(2R-PamO,3-PamO))GGE-OH)
Degree of AchE positive cell [1]: 1.43
Degree of megakaryocyte colony formation ([5]; 0.4 ng/ml): 1.82
Degree of megakaryocyte colony formation ([5]; 4 ng/ml): 2.01
Minimal Effective Concentration (MEC) [3]: < 0.156 ng/mL

CCCCCCCCCCCCCCCC(=O)OC[C@H](CSC[C@H](N)C(=O)NCC(=O)N[C@@H](CCC(=O)O)C(=O)N[C@@H](CCC(=O)O)C(=O)O)OC(=O)CCCCCCCCCCCCCCC [Compound 23, (2R,6R)-2-amino-6,7-bis(PamO)-4-THT-Gly-Glu-Glu-OH] (H-C(Propyl(2R-PamO,3-PamO))GEE-OH)
Degree of AchE positive cell [1]: 1.67
